# Reference: PubChem BioAssay AID493014 (National Center for Advancing Translational Sciences (NCATS), 2011)
# Some of the results follow. Shown are side measurements of this screen, not its main read-out; they come without a call. Compounds called inactive in the main read-out are mostly missing here. Words in brackets tell the shape of the fitted curve; partial curves, single points and poor fits give uncertain potencies.
# Test: qHTS Assay to Find Inhibitors of Chronic Active B-Cell Receptor Signaling
# Conditions: ABC-DLBCL IkBa-CBG/CBR reporter, luminescence ratio (green luciferase fused to IkBa over red control in TMD8 lymphoma cells), 4 h
# Procedure, shortened: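 Compounds up to 46 uM were incubated four hours with TMD8 cells whose green CBG68 luciferase is fused to IkappaBalpha; red CBR luminescence normalised the signal, and concentration-effect curves were fitted to fusion, red and ratio data.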
# [1] = measured here: IkBa-CBG green luminescence
# [2] = measured here: CBR red luminescence, cell number
structure (smiles),measurement,setting,value
CN(/N=C/c1cc(Cl)cc(Cl)c1O)c1c(Cl)cccc1[N+](=O)[O-],AC50,[1],"14.1 µM [rising, partial curve, poor fit]"
Cc1ccc(N(C(=O)Cc2cccs2)C(C(=O)NC2CCCCC2)c2ccccn2)cc1C (centres undefined),AC50,[2],"0.082 µM [falling, full curve, poor fit]"
Cn1c(COc2ccccc2)nnc1SCc1nc2ccccc2[nH]1,AC50,[2],"0.58 µM [rising, full curve, poor fit]"
Cc1ccc(NC(=O)CNc2ccccc2N2CCCC2=O)cc1S(=O)(=O)N1CCOCC1,AC50,[2],"11.6 µM [rising, partial curve]"
O=C(NCc1ccccn1)c1ccc(Cn2c(=S)[nH]c3ccccc3c2=O)cc1,AC50,[2],"5.62 µM [rising, single point]"
O=C(Nc1ccc(F)cc1)C1CCCO1 (centres undefined),AC50,[2],"15.8 µM [falling, single point]"
CCc1c(C(=O)NC2CCCC2)csc1C,AC50,[2],"5.17 µM [rising, single point]"
Cc1cccc(OCc2nnc(SC(C)C(=O)O)n2Cc2ccccc2)c1 (centres undefined),AC50,[2],"3.98 µM [rising, single point]"
COC(=O)c1cc2ccccc2c(-c2c(OC)c(C(=O)OC)cc3ccccc23)c1OC,AC50,[2],"6.31 µM [falling, full curve]"
same,AC50,[1],"10 µM [rising, partial curve, poor fit]"
CC(=O)c1c(C(C)=O)c(C)n(Cc2ccc(Cl)cc2)c1C,AC50,[2],"13 µM [falling, single point]"
Cc1cc(C)cc(S(=O)(=O)c2cnc3ccccc3n2)c1,AC50,[2],"5.62 µM [falling, full curve, poor fit]"
Cn1nc([N+](=O)[O-])c(C(C#N)c2ccccn2)c(Cl)c1=O (centres undefined),AC50,[2],"11.2 µM [falling, partial curve, poor fit]"
C/C(N)=C(/C#N)C(=O)COC(=O)c1oc2ccccc2c1COC(C)C,AC50,[2],"20 µM [falling, single point]"
CCN(CC)C(=O)CSc1nc(N)c(C#N)c(-c2cccs2)c1C#N,AC50,[2],"1.64 µM [falling, full curve, poor fit]"
same,AC50,[1],"2.91 µM [rising, full curve]"
COc1cc(NC(=O)[C@H](C)NC(=O)N2CCn3c2nc2ccccc23)cc(OC)c1,AC50,[2],"7.08 µM [falling, partial curve]"
O=C(COC(=O)c1cccc(O)c1)Nc1nnc(-c2ccccc2)o1,AC50,[2],"18.4 µM [falling, single point]"
Cc1ccc(/C=N/NC(=O)Cc2c[nH]c3ccccc23)c(C)c1,AC50,[2],"31.6 µM [falling, single point]"
CC(=O)Nc1sc(C)c(C)c1CN1CCN(S(=O)(=O)c2ccccc2)CC1,AC50,[2],"20.6 µM [falling, partial curve, poor fit]"
N#Cc1ccsc1NC(=O)CSc1nnc(-c2ccccc2)o1,AC50,[2],"9.2 µM [falling, partial curve]"
CCCCNS(=O)(=O)c1ccc(NS(=O)(=O)c2c(C)cc(C)cc2C)cc1,AC50,[2],"18.4 µM [falling, single point]"
O=c1c2[nH]c3ccc(F)cc3c2ncn1CCC1=CCCCC1,AC50,[2],"0.0891 µM [rising, full curve, poor fit]"
CN(Cc1nc2ccccc2c(=O)[nH]1)C(=O)COc1ccccc1Cc1ccccc1,AC50,[2],"18.4 µM [falling, partial curve]"
NC(=O)c1ccsc1NC(=O)c1ccc(S(=O)(=O)N2CCCc3ccccc32)cc1,AC50,[2],"29.1 µM [falling, single point]"
COC(=O)c1c(C)oc2cc(Br)c(OCC(=O)C(C)(C)C)cc12,AC50,[2],"15.8 µM [falling, partial curve, poor fit]"
CC(=O)Nc1sc(C)c(C)c1C(=O)OCC(=O)N(Cc1ccccc1)C(C)C,AC50,[2],"0.0731 µM [rising, full curve, poor fit]"
O=c1ncn(-c2ccccc2C(F)(F)F)c2ncccc12,AC50,[2],"4.61 µM [rising, full curve, poor fit]"
COc1cc(CNc2ccc3[nH]c(=O)[nH]c3c2)ccc1OCc1ccc(C)cc1,AC50,[2],"14.1 µM [rising, partial curve, poor fit]"
O=C(NC(Cc1c[nH]c2ccccc12)C(=O)O)c1ccc(Br)cc1 (centres undefined),AC50,[2],"0.631 µM [falling, partial curve, poor fit]"
Cn1c(CN2CCOCC2)nc2cc(NC(=O)c3ccc(F)cc3)ccc21,AC50,[2],"18.4 µM [falling, partial curve]"
COC(=O)c1[nH]c2c(c1C)C(=O)CC(c1ccc(OC)c(OC)c1)C2 (centres undefined),AC50,[2],"6.31 µM [rising, single point]"
COc1ccc(NC(=O)CCN2C(=O)/C(=C/c3ccc4c(c3)OCO4)SC2=S)cc1,AC50,[2],"20 µM [falling, single point]"
CCOC(=O)/C(=C\c1ccc(OC(F)F)cc1)C1=Nn2c(nnc2-c2ccc(Cl)cc2)SC1,AC50,[2],"10.3 µM [falling, partial curve]"
COc1ccc(CC(=O)c2ccc(OC3OC(CO)C(O)C(O)C3O)cc2O)cc1 (centres undefined),AC50,[2],"3.98 µM [rising, single point]"
COc1cc(OC)cc(C(=O)Nc2ccc(N3CCOCC3)cc2N2CCOCC2)c1,AC50,[2],"29.1 µM [falling, partial curve, poor fit]"
N#CCc1nc2ccccc2c(=O)[nH]1,AC50,[2],"35.5 µM [falling, single point]"
CCOC(=O)c1c(CCl)nc2ccccc2c1-c1ccccc1,AC50,[2],"3.55 µM [falling, partial curve, poor fit]"
COc1ccccc1OCCC(=O)OCC(=O)c1[nH]c(C)c(C(C)=O)c1C,AC50,[2],"22.4 µM [falling, single point]"
COC(C/C=C/C(=O)COCc1ccccc1)OC,AC50,[2],"12.6 µM [falling, partial curve, poor fit]"
CCOc1cc(CNC2CCCC2)ccc1OCc1ccccc1Cl,AC50,[2],"25.1 µM [falling, single point]"
CCOC(=O)[C@H]1[C@H]2COc3ccccc3[C@@H]2N2C(=O)c3cc(F)c(F)cc3NC(=O)[C@@]12C,AC50,[2],"18.4 µM [falling, single point]"
O=C(Nc1nc2c(Cl)cccc2s1)C1CC1,AC50,[2],"5.01 µM [falling, partial curve]"
CCC(=O)OCCNc1cc(Sc2nc3ccccc3[nH]2)c2nonc2c1[N+](=O)[O-],AC50,[2],"25.9 µM [falling, single point]"
Cc1cccc(-c2nc(CS(=O)CC(=O)NCCc3ccc(Cl)cc3)c(C)o2)c1 (centres undefined),AC50,[2],"12.6 µM [falling, partial curve, poor fit]"
CSc1nnc(NC(=O)c2nc(S(=O)(=O)Cc3ccc(C)cc3)ncc2Cl)s1,AC50,[2],"20 µM [falling, partial curve, poor fit]"
CCOC(=O)Cc1csc(NC(=O)/C=C\c2ccccc2Cl)n1,AC50,[2],"2.82 µM [falling, full curve]"
COC(=O)c1cccc(NC(=S)N2CCN(C)CC2)c1,AC50,[2],"11.2 µM [rising, partial curve, poor fit]"
CCCC(=O)C1=C(O)C(C(=O)OC)C(C)(C)CC1=Nc1ccc(C)cc1 (centres undefined),AC50,[2],"35.5 µM [falling, single point]"
CCOc1ccc(/C=C2\SC(=S)NC2=O)cc1OC,AC50,[1],"11.2 µM [rising, partial curve, poor fit]"
Cc1ccc(NS(=O)(=O)c2cc(NC(=O)C(C)Oc3ccccc3)ccc2C)c(C)c1 (centres undefined),AC50,[2],"0.92 µM [falling, full curve, poor fit]"
CCN1CCN(C(c2cccnc2)c2cc(Cl)c3cccnc3c2O)CC1 (centres undefined),AC50,[2],"28.2 µM [falling, single point]"
COc1ccccc1N1CCN(C(=O)C2CCN(C(=O)c3ccccc3C)CC2)CC1,AC50,[2],"11.2 µM [rising, partial curve, poor fit]"
Cc1ccccc1OCC(=O)N(Cc1nnc(-c2ccc(Cl)cc2)o1)C(C)C,AC50,[2],"5.17 µM [rising, single point]"
CC(=O)c1sc(NC(=O)C2CC(=O)N(Cc3ccco3)C2)nc1-c1ccccc1 (centres undefined),AC50,[2],"10.3 µM [falling, partial curve]"
COC(=O)c1sccc1N/N=C(\C)c1ccc(F)c(Cl)c1,AC50,[2],"6.51 µM [rising, single point]"
CCCCC(C(=O)O)C(C)CC(=O)NNC(=O)c1ccco1 (centres undefined),AC50,[2],"15.8 µM [falling, partial curve, poor fit]"
COc1ccccc1N1CCN(S(=O)(=O)c2ccc3c(c2)NC(=O)C(C)C(=O)N3)CC1 (centres undefined),AC50,[2],"0.282 µM [rising, full curve, poor fit]"
COc1ccc(NC(=O)C/C(C)=N/NC(=O)c2cnccn2)cc1,AC50,[2],"11.2 µM [falling, partial curve, poor fit]"
N=c1c(S(=O)(=O)c2ccc(Cl)cc2)cc2c(=O)n3ccccc3nc2n1Cc1ccco1,AC50,[2],"1.26 µM [falling, partial curve, poor fit]"
Cc1ccc(/C=C/C(=O)Nc2ccc(N(C)C)cc2)o1,AC50,[2],"8.2 µM [falling, partial curve]"
CC1CN(C(=O)COC(=O)c2ccc(NC(=O)CC#N)cc2)CC(C)O1 (centres undefined),AC50,[2],"35.5 µM [falling, single point]"
N#CCCNc1c(Cl)cc(Cl)cc1C(=O)O,AC50,[2],"9.2 µM [rising, partial curve, poor fit]"
CNC(=O)c1ccc(Nc2nnc(-c3ccc(C)c(S(N)(=O)=O)c3)c3ccccc23)cc1,AC50,[2],"7.94 µM [rising, partial curve, poor fit]"

# Reformatted bar-delimited: entries from further up.
structure (smiles) | measurement | setting | value
CCCCC(C(=O)O)C(C)CC(=O)NNC(=O)c1ccco1 (centres undefined) | AC50 | [2] | 15.8 µM [falling, partial curve, poor fit]
COc1ccccc1N1CCN(S(=O)(=O)c2ccc3c(c2)NC(=O)C(C)C(=O)N3)CC1 (centres undefined) | AC50 | [2] | 0.282 µM [rising, full curve, poor fit]
COc1ccc(NC(=O)C/C(C)=N/NC(=O)c2cnccn2)cc1 | AC50 | [2] | 11.2 µM [falling, partial curve, poor fit]
